Data: the supplement of paper PMC9233669
Variants at the background level are over-represented here.

Assays:
biotinyl-Trp-oxazolone = assay: self-aminoacylation, catalytic enhancement (BWO) (fold over background); higher = more active; k-Seq, kA / k0A0; sequences stand for … in GGGAAUGGAUCCACAUCUACGAAUUC…UUCACUGCAGACUUGACGAAGCUG
How it was run: (§1)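 Catalytic enhancement equals the median kA over the uncatalyzed rate, the latter read from the low-activity peak of a bimodal Gaussian fit. Values of kA came from fitting each sequence's fraction reacted to a pseudo-first-order model, with 1000 bootstraps. Reacted RNA was captured with streptavidin and quantified by triplicate qPCR and Illumina sequencing after 90 minutes at room temperature with 2–1250 μM biotinyl-aminoacyl-oxazolone and 0.43 μM mutagenized RNA pools bearing a 21-nt variable region.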

biotinyl-Leu-oxazolone = assay: self-aminoacylation, catalytic enhancement (BLO) (fold over background); higher = more active; k-Seq, kA / k0A0; sequences stand for … in GGGAAUGGAUCCACAUCUACGAAUUC…UUCACUGCAGACUUGACGAAGCUG
How it was run: as §1

biotinyl-Val-oxazolone = assay: self-aminoacylation, catalytic enhancement (BVO) (fold over background); higher = more active; k-Seq, kA / k0A0; sequences stand for … in GGGAAUGGAUCCACAUCUACGAAUUC…UUCACUGCAGACUUGACGAAGCUG
How it was run: as §1

biotinyl-Ile-oxazolone = assay: self-aminoacylation, catalytic enhancement (BIO) (fold over background); higher = more active; k-Seq, kA / k0A0; sequences stand for … in GGGAAUGGAUCCACAUCUACGAAUUC…UUCACUGCAGACUUGACGAAGCUG
How it was run: as §1

biotinyl-Met-oxazolone = assay: self-aminoacylation, catalytic enhancement (BMO) (fold over background); higher = more active; k-Seq, kA / k0A0; sequences stand for … in GGGAAUGGAUCCACAUCUACGAAUUC…UUCACUGCAGACUUGACGAAGCUG
How it was run: as §1

biotinyl-Phe-oxazolone = assay: self-aminoacylation, catalytic enhancement (BFO) (fold over background); higher = more active; k-Seq, kA / k0A0; sequences stand for … in GGGAAUGGAUCCACAUCUACGAAUUC…UUCACUGCAGACUUGACGAAGCUG
How it was run: as §1

Sequence	self-aminoacylation (biotinyl-Trp-oxazolone)	self-aminoacylation (biotinyl-Leu-oxazolone)	self-aminoacylation (biotinyl-Val-oxazolone)	self-aminoacylation (biotinyl-Ile-oxazolone)	self-aminoacylation (biotinyl-Met-oxazolone)	self-aminoacylation (biotinyl-Phe-oxazolone)
AUAACCCUGGUCAUAGAGUGA [Fam2.1 aminoacylation ribozyme variant]	9.78	8.65	3.61	3.62	8.34	49
AUUACACUGGUCAUCGAGUAA [Fam2.1 aminoacylation ribozyme variant]	1.75	1.42	1.39	1.41	1.33	0.934
CUACUUCGAACAGUCGGUCUG [Fam1A.1 aminoacylation ribozyme variant]	0.71	0.98	0.796	0.799	0.742	0.433
CCACACUUCAAGAGAUCGGUC [Fam1B.1 aminoacylation ribozyme variant]	0.942	0.98	0.934	1.08	0.931	0.813
AAGUUUGCUAACAGUCGGAAG [Fam3.1 aminoacylation ribozyme variant]	1.85	0.559	0.874	0.974	0.843	6.87
CUUACCCUGGUCAUCGAGUGA [Fam2.1 aminoacylation ribozyme variant]	26.1	23.1	11	9.83	25.3	85.8
AUUCACCUAGGUCAUCUGGAG [Fam2.2 aminoacylation ribozyme variant]	0.417	0.783	0.84	0.873	0.695	0.678
CUACUCCAAAUAAUCGGUCUG [Fam1A.1 aminoacylation ribozyme variant]	1.04	0.643	0.818	0.789	0.693	1.36
AAGUUUGCUAACAGGCGCAAG [Fam3.1 aminoacylation ribozyme variant]	0.795	0.771	0.868	0.832	0.878	1.2
CUACUUCAAACGAUCGGACUG [Fam1A.1 aminoacylation ribozyme variant]	0.492	0.631	0.697	0.632	0.49	0.61
CUACACUUCAAGCGAUCGGUC [Fam1B.1 aminoacylation ribozyme variant]	1.74	0.836	0.978	1.06	0.947	1.86
AUUCACCUAGGUCAUCGCCUG [Fam2.2 aminoacylation ribozyme variant]	2.11	3.01	2.44	2.01	1.87	8.71
UUAAUUCAAACAAUCGGUCUG [Fam1A.1 aminoacylation ribozyme variant]	2.47	0.923	0.836	0.882	0.804	3.57
CCACACUUCAAACACUCGGUC [Fam1B.1 aminoacylation ribozyme variant]	1.16	1.33	1.42	1.33	1.09	1.16
AAGUUUGCUAAUAGUCCCAAA [Fam3.1 aminoacylation ribozyme variant]	1.37	0.897	0.875	1.01	0.889	0.94
CUACUUCAAAUAACCGGUCUG [Fam1A.1 aminoacylation ribozyme variant]	0.594	0.596	0.68	0.745	0.429	0.628
AAGUUUGCUCAUAGUCGCUAG [Fam3.1 aminoacylation ribozyme variant]	0.89	0.807	0.866	0.817	0.928	0.967
CCACACUUCAAGGAGUCGGUC [Fam1B.1 aminoacylation ribozyme variant]	0.878	0.92	1.13	1.1	1.06	0.756
CCUCACUUCAAGCAAUUGGUC [Fam1B.1 aminoacylation ribozyme variant]	0.673	0.506	0.606	0.654	0.562	1.67
AUUCACCUAGGUCGUCGGUUG [Fam2.2 aminoacylation ribozyme variant]	0.63	1.33	1.24	1.13	1.2	4.19
CCAAACUUCAAGCGAUCGGUC [Fam1B.1 aminoacylation ribozyme variant]	1.25	1.32	1.35	1.1	1.11	1.09
AGUCACCUAGGACAUCGGGUG [Fam2.2 aminoacylation ribozyme variant]	6.31	4.11	5.02	4.13	4.24	26.6
AUUACCAUGGUGAUCGAGUGA [Fam2.1 aminoacylation ribozyme variant]	4.4	4.04	2.4	2.33	3.59	14.7
AAGUUUGCUUAUAGGCGCAAG [Fam3.1 aminoacylation ribozyme variant]	0.9	0.466	0.79	0.699	0.675	0.967
AAUCUCCUAGGUCAUCGGGUG [Fam2.2 aminoacylation ribozyme variant]	5.91	6.83	4.51	4.3	6.93	35.1
CUACCUGAAACAAUCGGUCUG [Fam1A.1 aminoacylation ribozyme variant]	0.839	0.714	0.725	0.724	0.951	0.626
